Series [1] has as its target ICBP90 (Homo sapiens) (UniProt Q96T88). Description: EMSA. The settings on record: same buffer as ICBP-59; behaviour stated identical to ICBP-59; purified recombinant protein; protein details: GST fusion system (pGEX-4T-1), E. coli BL21; label: 32P. On the technique in general: Mobility shift assays separate free from complexed probe on a gel.
Series [2] addresses ICBP-59 GAL4-AD fusion (Homo sapiens) (UniProt Q96T88). The series is described as follows: one hybrid. The settings on record: yeast YM4271, pHISi-1 his3 reporter; protein in cells; protein details: GAL4-AD (pGAD10); label: 32P.

By UniProt entry, the sequences of proteins in these tests, tags left out. Residues count along the entry.
UniProt Q96T88, whole entry K383N/A457S: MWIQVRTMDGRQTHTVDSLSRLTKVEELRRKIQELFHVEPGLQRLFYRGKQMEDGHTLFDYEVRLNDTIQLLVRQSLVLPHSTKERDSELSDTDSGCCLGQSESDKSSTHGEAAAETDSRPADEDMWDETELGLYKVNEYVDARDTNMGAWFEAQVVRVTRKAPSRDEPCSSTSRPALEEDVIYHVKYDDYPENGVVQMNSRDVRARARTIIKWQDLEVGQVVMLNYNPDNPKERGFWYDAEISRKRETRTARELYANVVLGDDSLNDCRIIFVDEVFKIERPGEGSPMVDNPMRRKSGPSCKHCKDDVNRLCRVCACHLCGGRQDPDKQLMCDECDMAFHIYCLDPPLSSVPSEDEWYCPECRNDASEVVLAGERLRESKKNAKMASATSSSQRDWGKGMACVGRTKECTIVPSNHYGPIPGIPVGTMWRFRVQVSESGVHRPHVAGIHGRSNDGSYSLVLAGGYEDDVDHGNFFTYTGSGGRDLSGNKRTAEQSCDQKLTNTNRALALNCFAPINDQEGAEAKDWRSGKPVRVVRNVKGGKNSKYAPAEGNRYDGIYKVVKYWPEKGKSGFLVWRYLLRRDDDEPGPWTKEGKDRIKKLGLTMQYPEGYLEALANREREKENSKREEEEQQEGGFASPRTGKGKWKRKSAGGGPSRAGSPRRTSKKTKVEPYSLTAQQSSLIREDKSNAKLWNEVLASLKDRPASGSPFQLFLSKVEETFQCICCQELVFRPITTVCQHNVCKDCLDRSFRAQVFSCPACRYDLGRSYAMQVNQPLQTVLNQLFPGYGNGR
UniProt Q96T88, 263-793 K383N/A457S: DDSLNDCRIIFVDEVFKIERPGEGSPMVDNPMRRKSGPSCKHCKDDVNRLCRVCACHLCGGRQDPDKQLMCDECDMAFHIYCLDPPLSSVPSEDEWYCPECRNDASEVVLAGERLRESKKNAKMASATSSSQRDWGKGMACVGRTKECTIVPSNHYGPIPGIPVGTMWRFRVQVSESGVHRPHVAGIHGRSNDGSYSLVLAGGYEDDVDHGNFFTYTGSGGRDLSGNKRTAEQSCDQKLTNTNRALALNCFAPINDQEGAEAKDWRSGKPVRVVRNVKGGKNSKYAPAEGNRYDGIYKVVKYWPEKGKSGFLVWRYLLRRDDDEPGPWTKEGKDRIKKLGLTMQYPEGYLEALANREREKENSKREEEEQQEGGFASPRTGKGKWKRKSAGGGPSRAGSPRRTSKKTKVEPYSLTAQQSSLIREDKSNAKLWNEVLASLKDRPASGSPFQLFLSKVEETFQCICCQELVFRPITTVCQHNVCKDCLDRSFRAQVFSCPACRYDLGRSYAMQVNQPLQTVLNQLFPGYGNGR

For some assays here: Where cells or extracts were used, other partners may take part. For some assays here: Construct, isoform or probe ends are uncertain for at least one entry.

With “ATAAAGGCAAGCTACGATTGGTTCTTCTGGACGGAGAC / GTCTCCGTCCAGAAGAACCAATCGTAGCTTGCCTTTTAT [ICB2 single copy]”, in series [1], the binding result is recorded as “binds”.

Turning to “AATTCGATTGGTTCTGATTGGTTCTGATTGGTTCTT / CTAGAAGAACCAATCAGAACCAATCAGAACCAATCG [ICB2X3]”, the binding result in series [2] is on record as “binds”.

These data come from patent publication US20060281125.
